We go through one substance from article PMC11671023.

Amino acid sequences for entries named in this document (tags omitted).
UniProt Q3TKT4: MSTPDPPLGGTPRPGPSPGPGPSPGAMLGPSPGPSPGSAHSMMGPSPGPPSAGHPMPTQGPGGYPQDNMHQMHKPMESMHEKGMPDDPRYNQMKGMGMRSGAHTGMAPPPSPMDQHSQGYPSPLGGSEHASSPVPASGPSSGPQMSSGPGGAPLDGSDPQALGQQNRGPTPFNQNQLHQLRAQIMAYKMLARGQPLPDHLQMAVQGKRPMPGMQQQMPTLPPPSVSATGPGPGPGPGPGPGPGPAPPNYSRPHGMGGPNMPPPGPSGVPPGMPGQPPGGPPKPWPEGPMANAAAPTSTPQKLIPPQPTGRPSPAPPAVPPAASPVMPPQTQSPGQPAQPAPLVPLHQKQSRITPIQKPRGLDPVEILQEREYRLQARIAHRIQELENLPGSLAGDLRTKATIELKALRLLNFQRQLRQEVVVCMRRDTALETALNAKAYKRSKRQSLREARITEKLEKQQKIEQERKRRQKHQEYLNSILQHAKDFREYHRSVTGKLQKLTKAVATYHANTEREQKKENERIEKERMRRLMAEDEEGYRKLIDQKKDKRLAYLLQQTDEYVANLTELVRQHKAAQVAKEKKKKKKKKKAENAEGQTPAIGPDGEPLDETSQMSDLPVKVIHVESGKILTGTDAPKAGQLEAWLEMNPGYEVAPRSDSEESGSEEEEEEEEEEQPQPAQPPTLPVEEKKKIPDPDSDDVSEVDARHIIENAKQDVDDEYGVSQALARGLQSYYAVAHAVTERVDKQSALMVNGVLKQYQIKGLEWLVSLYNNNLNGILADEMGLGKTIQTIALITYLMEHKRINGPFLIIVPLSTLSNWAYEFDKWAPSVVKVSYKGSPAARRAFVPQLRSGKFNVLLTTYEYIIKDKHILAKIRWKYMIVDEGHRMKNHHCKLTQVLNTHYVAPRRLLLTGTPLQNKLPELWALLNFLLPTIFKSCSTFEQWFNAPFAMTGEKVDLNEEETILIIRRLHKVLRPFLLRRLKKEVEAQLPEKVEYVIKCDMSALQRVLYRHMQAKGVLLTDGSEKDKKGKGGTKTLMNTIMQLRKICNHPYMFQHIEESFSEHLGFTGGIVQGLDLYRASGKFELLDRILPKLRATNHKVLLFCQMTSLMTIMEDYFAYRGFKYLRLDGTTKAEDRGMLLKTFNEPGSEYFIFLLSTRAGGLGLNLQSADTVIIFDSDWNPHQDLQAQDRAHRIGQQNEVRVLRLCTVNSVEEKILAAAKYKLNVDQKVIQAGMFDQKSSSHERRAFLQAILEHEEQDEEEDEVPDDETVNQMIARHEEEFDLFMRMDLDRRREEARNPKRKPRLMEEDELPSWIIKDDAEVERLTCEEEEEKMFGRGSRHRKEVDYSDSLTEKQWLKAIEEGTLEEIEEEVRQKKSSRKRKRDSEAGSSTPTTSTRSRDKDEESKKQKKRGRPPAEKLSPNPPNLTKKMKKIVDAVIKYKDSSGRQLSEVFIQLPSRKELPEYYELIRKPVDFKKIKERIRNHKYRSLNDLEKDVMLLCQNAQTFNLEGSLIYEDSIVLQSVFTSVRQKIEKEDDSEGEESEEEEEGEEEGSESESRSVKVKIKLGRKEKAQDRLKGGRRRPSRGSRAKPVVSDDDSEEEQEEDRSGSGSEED

The target of this assay is T1, murine cysteine rich intestinal protein 2 (mouse) (UniProt Q9DCT8).
T1 sequence: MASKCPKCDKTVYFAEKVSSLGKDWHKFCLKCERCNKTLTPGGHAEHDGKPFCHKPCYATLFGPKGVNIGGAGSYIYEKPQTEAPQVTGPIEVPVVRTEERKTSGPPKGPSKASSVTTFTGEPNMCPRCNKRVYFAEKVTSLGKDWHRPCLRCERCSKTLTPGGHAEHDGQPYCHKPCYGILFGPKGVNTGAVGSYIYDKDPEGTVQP
Nature of the assay: co-IP; immunoprecipitation attempts of mCrip2 and Brg1; no method or conditions told.

These are yes or no findings as the source states them, for the method shown. In cells and extracts the contact can be indirect.

Brg1 (from UniProt Q3TKT4 1-1613): the binding entry is given as “no binding”.
